Binding data for four molecules are collected here from paper doi:10.1101/2020.09.15.297002.

Sequences of proteins named here, by UniProt entry; tags and fusion partners are left off.
UniProt P49759: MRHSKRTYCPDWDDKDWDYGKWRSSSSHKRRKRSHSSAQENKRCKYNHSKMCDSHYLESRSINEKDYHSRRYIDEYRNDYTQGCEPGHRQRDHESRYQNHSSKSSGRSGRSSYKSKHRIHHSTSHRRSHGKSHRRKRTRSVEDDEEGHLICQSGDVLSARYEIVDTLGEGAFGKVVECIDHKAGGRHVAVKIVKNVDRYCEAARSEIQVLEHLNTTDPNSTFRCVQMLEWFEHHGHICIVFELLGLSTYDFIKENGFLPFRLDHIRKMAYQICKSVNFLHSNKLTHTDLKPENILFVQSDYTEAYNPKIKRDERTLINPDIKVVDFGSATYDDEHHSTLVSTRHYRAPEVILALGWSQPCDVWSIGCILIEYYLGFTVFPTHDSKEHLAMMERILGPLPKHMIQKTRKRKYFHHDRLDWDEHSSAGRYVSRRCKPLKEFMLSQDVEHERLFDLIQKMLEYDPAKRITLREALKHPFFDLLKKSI
UniProt P31751: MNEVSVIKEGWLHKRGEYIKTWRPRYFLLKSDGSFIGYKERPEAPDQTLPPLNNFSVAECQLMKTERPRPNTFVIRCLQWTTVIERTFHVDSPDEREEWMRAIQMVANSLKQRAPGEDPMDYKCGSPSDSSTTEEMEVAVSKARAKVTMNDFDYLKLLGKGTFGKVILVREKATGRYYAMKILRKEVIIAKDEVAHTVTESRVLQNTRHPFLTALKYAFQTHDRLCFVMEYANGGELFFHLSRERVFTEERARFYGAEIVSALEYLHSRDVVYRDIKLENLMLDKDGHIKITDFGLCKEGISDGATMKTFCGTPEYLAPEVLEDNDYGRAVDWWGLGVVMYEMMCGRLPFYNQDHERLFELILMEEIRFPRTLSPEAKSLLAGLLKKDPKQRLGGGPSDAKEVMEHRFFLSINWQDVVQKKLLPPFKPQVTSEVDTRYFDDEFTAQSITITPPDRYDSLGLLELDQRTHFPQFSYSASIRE
UniProt Q96SB4: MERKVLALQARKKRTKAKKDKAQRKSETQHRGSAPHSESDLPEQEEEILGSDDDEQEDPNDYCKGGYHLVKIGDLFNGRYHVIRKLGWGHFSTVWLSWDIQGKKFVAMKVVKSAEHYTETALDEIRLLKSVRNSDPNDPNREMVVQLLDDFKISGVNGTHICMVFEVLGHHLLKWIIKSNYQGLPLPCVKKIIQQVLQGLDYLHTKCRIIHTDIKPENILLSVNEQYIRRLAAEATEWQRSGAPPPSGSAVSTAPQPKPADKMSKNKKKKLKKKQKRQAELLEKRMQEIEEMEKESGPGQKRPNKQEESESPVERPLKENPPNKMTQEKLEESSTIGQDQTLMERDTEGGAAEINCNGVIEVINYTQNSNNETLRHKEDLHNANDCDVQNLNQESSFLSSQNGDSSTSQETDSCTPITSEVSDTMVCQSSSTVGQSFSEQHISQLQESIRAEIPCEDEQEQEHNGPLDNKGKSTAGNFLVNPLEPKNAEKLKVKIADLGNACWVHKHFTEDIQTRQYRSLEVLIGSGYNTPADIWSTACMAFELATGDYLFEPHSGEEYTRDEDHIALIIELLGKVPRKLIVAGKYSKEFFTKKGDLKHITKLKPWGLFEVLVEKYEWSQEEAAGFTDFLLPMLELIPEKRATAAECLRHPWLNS

Test in all cases: co-IP
Experiment [1] concerns the target T1, RNA binding motif 20 (RBM20), His-tagged, from plasmid pEGFP-C1-8his-RBM20 WT (rat) (UniProt E9PT37).
T1 sequence: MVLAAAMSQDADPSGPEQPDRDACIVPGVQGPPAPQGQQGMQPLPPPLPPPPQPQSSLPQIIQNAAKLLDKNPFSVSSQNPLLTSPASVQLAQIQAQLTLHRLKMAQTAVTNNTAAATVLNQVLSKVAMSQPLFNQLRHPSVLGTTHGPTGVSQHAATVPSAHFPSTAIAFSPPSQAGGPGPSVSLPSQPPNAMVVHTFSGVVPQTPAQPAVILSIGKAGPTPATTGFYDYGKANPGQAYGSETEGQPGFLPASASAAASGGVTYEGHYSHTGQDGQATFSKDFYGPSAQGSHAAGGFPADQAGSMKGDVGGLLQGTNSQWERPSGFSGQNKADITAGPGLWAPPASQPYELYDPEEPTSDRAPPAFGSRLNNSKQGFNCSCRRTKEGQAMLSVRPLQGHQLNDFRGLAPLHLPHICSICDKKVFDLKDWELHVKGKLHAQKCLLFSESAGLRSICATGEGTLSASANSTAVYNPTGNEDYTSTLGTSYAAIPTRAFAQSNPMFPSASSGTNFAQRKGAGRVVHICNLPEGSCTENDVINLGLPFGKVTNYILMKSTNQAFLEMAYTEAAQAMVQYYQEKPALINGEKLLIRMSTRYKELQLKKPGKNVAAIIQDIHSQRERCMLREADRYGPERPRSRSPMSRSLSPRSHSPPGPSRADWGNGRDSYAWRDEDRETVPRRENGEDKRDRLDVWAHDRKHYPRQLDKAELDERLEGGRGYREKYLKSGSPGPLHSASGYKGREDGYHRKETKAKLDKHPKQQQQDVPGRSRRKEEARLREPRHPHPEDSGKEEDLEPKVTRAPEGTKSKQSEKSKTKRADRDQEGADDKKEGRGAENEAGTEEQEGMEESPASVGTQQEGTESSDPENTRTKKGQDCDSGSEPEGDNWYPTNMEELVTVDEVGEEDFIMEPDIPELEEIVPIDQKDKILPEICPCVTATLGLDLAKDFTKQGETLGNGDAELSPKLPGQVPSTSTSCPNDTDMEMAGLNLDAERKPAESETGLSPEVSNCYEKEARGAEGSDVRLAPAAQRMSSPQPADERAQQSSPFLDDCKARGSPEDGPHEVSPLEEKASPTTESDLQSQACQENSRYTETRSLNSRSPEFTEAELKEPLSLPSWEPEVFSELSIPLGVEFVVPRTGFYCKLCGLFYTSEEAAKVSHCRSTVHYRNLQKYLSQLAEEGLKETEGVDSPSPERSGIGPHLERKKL

In experiment [2] the target is cdc2-like kinase 1 (CLK1), from plasmid pcDNA3.1-mcherry-CLK1 (UniProt P49759).
For experiment [3], the target named is Myr-HA-Akt2, from plasmid pcDNA3-Myr-HA-Akt2 (UniProt P31751).
Experiment [4] concerns the target SR-protein kinase 1 (SRPK1), from plasmid pcDNA3.1-mcherry-SRPK1 (UniProt Q96SB4).

No constants are given. Whether binding was seen depends on the method and setting. Binding seen in cells or lysates may run through a third protein. Some results given as binding are weak or reduced against the parent protein; the word gives no strength. Where a sequence is shown, tags or fusion partners need not be part of it.

For the molecule “Myr-HA-Akt2, from plasmid pcDNA3-Myr-HA-Akt2 (from UniProt P31751 1-481) (enzyme)”, the binding result in experiment [1] is recorded as “binds”.
Still for that read-out and setting: the same measure for “cdc2-like kinase 1 (CLK1), from plasmid pcDNA3.1-mcherry-CLK1 (from UniProt P49759 1-484) (enzyme)”: “binds”.
With “SR-protein kinase 1 (SRPK1), from plasmid pcDNA3.1-mcherry-SRPK1 (from UniProt Q96SB4 1-655) (enzyme)”, the binding result in experiment [1] was “binds”.

B1: RNA binding motif 20 (RBM20), His-tagged, from plasmid pEGFP-C1-8his-RBM20 WT (protein, UniProt E9PT37 1-1207)
chain: MVLAAAMSQDADPSGPEQPDRDACIVPGVQGPPAPQGQQGMQPLPPPLPPPPQPQSSLPQIIQNAAKLLDKNPFSVSSQNPLLTSPASVQLAQIQAQLTLHRLKMAQTAVTNNTAAATVLNQVLSKVAMSQPLFNQLRHPSVLGTTHGPTGVSQHAATVPSAHFPSTAIAFSPPSQAGGPGPSVSLPSQPPNAMVVHTFSGVVPQTPAQPAVILSIGKAGPTPATTGFYDYGKANPGQAYGSETEGQPGFLPASASAAASGGVTYEGHYSHTGQDGQATFSKDFYGPSAQGSHAAGGFPADQAGSMKGDVGGLLQGTNSQWERPSGFSGQNKADITAGPGLWAPPASQPYELYDPEEPTSDRAPPAFGSRLNNSKQGFNCSCRRTKEGQAMLSVRPLQGHQLNDFRGLAPLHLPHICSICDKKVFDLKDWELHVKGKLHAQKCLLFSESAGLRSICATGEGTLSASANSTAVYNPTGNEDYTSTLGTSYAAIPTRAFAQSNPMFPSASSGTNFAQRKGAGRVVHICNLPEGSCTENDVINLGLPFGKVTNYILMKSTNQAFLEMAYTEAAQAMVQYYQEKPALINGEKLLIRMSTRYKELQLKKPGKNVAAIIQDIHSQRERCMLREADRYGPERPRSRSPMSRSLSPRSHSPPGPSRADWGNGRDSYAWRDEDRETVPRRENGEDKRDRLDVWAHDRKHYPRQLDKAELDERLEGGRGYREKYLKSGSPGPLHSASGYKGREDGYHRKETKAKLDKHPKQQQQDVPGRSRRKEEARLREPRHPHPEDSGKEEDLEPKVTRAPEGTKSKQSEKSKTKRADRDQEGADDKKEGRGAENEAGTEEQEGMEESPASVGTQQEGTESSDPENTRTKKGQDCDSGSEPEGDNWYPTNMEELVTVDEVGEEDFIMEPDIPELEEIVPIDQKDKILPEICPCVTATLGLDLAKDFTKQGETLGNGDAELSPKLPGQVPSTSTSCPNDTDMEMAGLNLDAERKPAESETGLSPEVSNCYEKEARGAEGSDVRLAPAAQRMSSPQPADERAQQSSPFLDDCKARGSPEDGPHEVSPLEEKASPTTESDLQSQACQENSRYTETRSLNSRSPEFTEAELKEPLSLPSWEPEVFSELSIPLGVEFVVPRTGFYCKLCGLFYTSEEAAKVSHCRSTVHYRNLQKYLSQLAEEGLKETEGVDSPSPERSGIGPHLERKKL
Take B1: the binding entry in experiment [2], in experiment [3] and in experiment [4] was “binds” each time.
